Assay results published in PubChem BioAssay AID504834 (National Center for Advancing Translational Sciences (NCATS), 2011).
Hit rate of the full screen: of about 320,000 compounds, about 22,000 (6.9%) were called active. Inconclusive means that the source gave no clear call. Such entries were picked first, then a sample of the others. Calls follow the shape of the dose curve; as a rule, active = well fitted inhibition curve with a large enough effect; inconclusive = small, poorly fitted or top-dose-only effect, or another doubt; inactive = no such curve, though single readings can be large or run the other way. Potencies beside an inconclusive call are fits to weak or partial responses and may not hold up. The source holds several records for some structures; these can differ, active in one and inactive in another.

Assay: Primary qHTS for delayed death inhibitors of the malarial parasite plastid, 96 hour incubation
Conditions: P. falciparum luciferase reporter growth; series mostly up to 28.7 µM; activity change, negative = inhibition: at the top concentration
Method in brief: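 Infected RBCs, 2% Hct / 0.05% parasitemia final; luciferase-reporter P. falciparum; cpd 96 h, 37 C, 5% CO2; luciferase detection reagent; luminescence.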
% is scaled to controls: 0 for no effect and ±100 for the full control effect; potency is read from the fitted curve at half-maximal effect.

Row | SMILES | activity change, negative = inhibition | Potency
1 | O=C(N/N=C/c1cccnc1)c1ccccc1Cl | inactive: -19.9% | –
2 | COc1ccc(S(=O)(=O)Cc2ccc(C(=O)NC3CCCCC3)o2)cc1 | inactive: -1% | –
3 | O=C(O)c1cccc(Nc2nc(-c3cccnc3)nc3ccccc23)c1 | – | inconclusive: 14.7 µM [inhibitor, partial curve, poor fit]
4 | CC(/C=N/NC(=O)c1cc(-c2cccn2C)n[nH]1)=C\c1ccccc1 | – | inconclusive: 11.7 µM [inhibitor, partial curve]
5 | CCN(Cc1cccs1)C(=O)c1cccc(S(=O)(=O)N2CCN(C)CC2)c1 | – | inconclusive: 10.4 µM [inhibitor, single point]
6 | O=C(C[n+]1cc(-c2ccc(F)cc2)n2c1CCC2)Nc1nc(-c2ccc(F)cc2)cs1 | – | inconclusive: 9.28 µM [inhibitor, single point]
7 | COC1=C(Nc2ccc(C)cc2)C(=O)c2ccccc2C1=O | – | active: 1.17 µM
8 | COCCN(C(=S)Nc1ccc(C)cc1C)C(C)c1cccs1 (stereo unspecified) | inactive: 35.3% | –
9 | CCc1ccc(NC(=S)Nc2ccc3cn[nH]c3c2)cc1 | inactive: 5.3% | –
10 | Cc1cc(C)c(NC(=O)c2ccoc2C)c(C)c1 | inactive: -20.8% | –
11 | COc1ccc(Cn2nnc3c(C)n[nH]c(=O)c32)cc1 | – | inconclusive: 18.5 µM [inhibitor, single point]
12 | Cc1ccc2nc(NC(=O)c3cccs3)sc2c1 | – | inconclusive: 18.5 µM [inhibitor, single point]
13 | CCc1ccc(-n2c(SCC(=O)Nc3ccc(C(=O)O)cc3)nnc2-c2ccncc2)cc1 | inactive: -3.51% | –
14 | Cc1ccccc1NC(=O)NCCN1C(=O)C2C3C=CC(C3)C2C1=O (stereo unspecified) | – | inconclusive: 8.28 µM [inhibitor, partial curve, poor fit]
15 | C=CCN1CCc2nc(N)sc2CC1 | – | active: 6.75 µM
16 | CCOC(=O)N1CCN(c2nc(N(c3ccccc3)c3ccccc3)nc(-n3ccnc3)n2)CC1 | – | inconclusive: 1.47 µM [inhibitor, partial curve]
17 | CN1CCC(N(C)C(=O)COc2ccccc2-c2ccccc2)CC1 | – | inconclusive: 10.4 µM [inhibitor, single point]
18 | COc1cccc(NC(=O)C(=O)NCC2CCCN2S(=O)(=O)c2ccccc2)c1 (stereo unspecified) | inactive: -11.6% | –
19 | Cc1noc(C)c1S(=O)(=O)N1CCCN(C(=O)/C=C/c2ccccc2F)CC1 | – | inconclusive: 8.28 µM [inhibitor, partial curve]
20 | Cc1cc(=O)[nH]c(SCC(=O)NCc2ccc3c(c2)OCO3)n1 | – | inconclusive: 10.4 µM [inhibitor, partial curve, poor fit]
21 | CCNc1nc(NCC)n2c(SCC(=O)Nc3ccccc3)nnc2n1 | – | inconclusive: 2.08 µM [inhibitor, full curve, poor fit]
22 | COc1ccccc1/C=N/OCC(=O)NCc1ccc2c(c1)OCO2 | inactive: -0.0834% | –
23 | CCOC(=O)c1sc(/S(C)=N\S(=O)(=O)c2cccc(Cl)c2)c2c1CCC=C2 (stereo unspecified) | – | inconclusive: 18.5 µM [inhibitor, single point]
24 | CCOC(=O)c1c(CSc2ccsc2)n(C)c2cc(Br)c(O)c(CN(C)C)c12 | – | inconclusive: 2.94 µM [inhibitor, full curve]

Row | SMILES | activity change, negative = inhibition | Potency
25 | CC(C)n1ncc2c(C(=O)Nc3ccc(S(N)(=O)=O)cc3)cc(C3CC3)nc21 | – | inconclusive: 18.5 µM [inhibitor, partial curve, poor fit]
26 | Nc1ccc(-c2nc3cc([N+](=O)[O-])ccc3o2)cc1 | inactive: 79.4% | –
27 | Cn1c(O)c(/C=N/c2ccccn2)c(=O)n(C)c1=O | – | inconclusive: 0.0657 µM [inhibitor, full curve, poor fit]
28 | Cc1nc2c(O)cccc2cc1CO | – | inconclusive: 2.33 µM [inhibitor, full curve, poor fit]
29 | CN(C)c1nc(N(C)C)n(Cc2c(Cl)cccc2Cl)n1 | – | inconclusive: 16.5 µM [inhibitor, partial curve, poor fit]
30 | CC1Cc2nc(SCC(=O)c3ccccc3)n(Cc3ccccc3)c(=O)c2S1 (stereo unspecified) | – | inconclusive: 10.4 µM [inhibitor, partial curve]
31 | CCOc1ccc(N(CC(=O)N2CCCCCC2)S(C)(=O)=O)cc1 | inactive: 2.27% | –
32 | Cc1cc(C)cc(NC(=O)CN2C(=O)c3ccccc3C2=O)c1 | inactive: -16.1% | –
33 | CCOC(=O)CNc1c(-c2ccccc2)nc2ccc(Cl)cn12 | inactive: 93.1% | –
34 | COc1ccc(S(=O)(=O)Nc2nc3ccccc3nc2NCC2CCCO2)cc1 (stereo unspecified) | inactive: 8.58% | –
35 | Cn1c(SCC(=O)O)nnc1C1CCCCC1 | – | inconclusive: 10.4 µM [inhibitor, single point]
36 | CC1=C(C(=O)OC2CCC(C)CC2)C(c2ccc(O)c([N+](=O)[O-])c2)NC(=O)N1 (stereo unspecified) | – | inconclusive: 18.5 µM [inhibitor, single point]
37 | COCCNC(=S)N1CCN(c2ccc(Cl)cc2)CC1 | – | inconclusive: 20.8 µM [inhibitor, single point]
38 | COc1ccc(CNC(=O)CNC(=O)c2cccs2)c(OC)c1 | inactive: 21.5% | –
39 | CCCc1cc(NC(=O)COC(=O)c2nccnc2N)n(-c2ccccc2)n1 | inactive: 17.8% | –
40 | Cc1nn(C)c(C)c1CCC(=O)NC1CC(C)(C)Cc2c1cnn2-c1ccccc1 (stereo unspecified) | – | inconclusive: 18.5 µM [inhibitor, single point]
41 | Fc1ccc(Br)cc1/C=N/n1cnnc1 | – | inconclusive: 0.0586 µM [inhibitor, full curve, poor fit]
42 | COc1ccc(S(=O)(=O)n2c(C)nc3ccccc32)cc1C | – | inconclusive: 3.7 µM [inhibitor, single point]
43 | CCOCCCNC(=O)c1ccc(CS(=O)(=O)Cc2ccc(C)cc2)o1 | – | inconclusive: 18.5 µM [inhibitor, single point]
44 | CCN1CCc2c(C#N)c(N3CCOCC3)nc(NCc3ccccc3)c2C1 | inactive: 18.1% | –
45 | Cc1cc(C)c2nc(NC(=O)[C@@H](NC(=O)c3cccc(S(=O)(=O)N4CCOCC4)c3)C(C)C)sc2c1 | – | active: 6.57 µM
46 | C/C(N)=C(/C#N)C(=O)CSc1ccccc1F | inactive: 243% | –
47 | CN(C)S(=O)(=O)c1ccc(C(=O)N2CCN=C2SCc2cccnc2)cc1 | – | inconclusive: 0.828 µM [inhibitor, full curve, poor fit]
48 | c1cncc(-c2nc(NCC3CCCO3)c3ccccc3n2)c1 (stereo unspecified) | – | inconclusive: 11.7 µM [inhibitor, partial curve, poor fit]

Row | SMILES | activity change, negative = inhibition | Potency
49 | CCCCC(=O)Nc1cccc2c1C(=O)N(c1ccccc1)C2=O | – | active: 0.928 µM
50 | COC(=O)C1=C(Nc2cc(Cl)cc(Cl)c2)CSC1 | inactive: 23.6% | –
51 | Cc1ccc(S(=O)(=O)c2c(N)n(CCC(C)C)c3nc4ccccc4nc23)cc1 | – | active: 13.1 µM
52 | CC1CCN(C(=O)C2CCN(S(=O)(=O)c3ccc4c(c3)CC(C)N4C(=O)C3CC3)CC2)CC1 (stereo unspecified) | inactive: 0.477% | –
53 | COc1ccc(OCc2nc(C#N)c(NCCCn3ccnc3)o2)cc1 | – | inconclusive: 4.15 µM [inhibitor, partial curve]
54 | COc1ccc(-n2nnnc2/C=C/Nc2cc(C(F)(F)F)ccc2OC)cc1 | – | inconclusive: 18.5 µM [inhibitor, single point]
55 | CC(=O)N/N=C/c1ccc([N+](=O)[O-])o1 | – | active: 12 µM
56 | COc1ccc(N(CC(=O)NCc2ccc(C)cc2)S(=O)(=O)c2c(C)[nH]c(=O)[nH]c2=O)cc1 | – | active: 4.65 µM
57 | CCOC(=O)/C(C#N)=C/Nc1ccccc1NS(=O)(=O)c1cccc(C(C)=O)c1 | – | inconclusive: 18.5 µM [inhibitor, single point]
58 | Cn1c(=O)[nH]c(=O)c2c1nc(N1CCN(C(c3ccccc3)c3ccccc3)CC1)n2CCO | – | inconclusive: 6.57 µM [inhibitor, partial curve, poor fit]
59 | Cc1ccc(C)c(N2CCN(C(=O)C3CCCN(S(=O)(=O)c4c(C)[nH]c(=O)[nH]c4=O)C3)CC2)c1 (stereo unspecified) | inactive: 0% | –
60 | CCNC(=S)N/N=C/c1c(Cl)cccc1Cl | – | inconclusive: 18.5 µM [inhibitor, partial curve, poor fit]
61 | CCC(C)Sc1ccc([C@H]2N[C@@](Cc3ccccc3)(C(=O)OC)[C@H]3C(=O)N(C)C(=O)[C@@H]23)cc1 (stereo partly specified) | – | inconclusive: 0.0033 µM [inhibitor, full curve, poor fit]
62 | Cc1ccc(/C=N/Nc2nc3ccccc3s2)o1 | – | inconclusive: 3.7 µM [inhibitor, single point]
63 | CC(=O)c1c(O)cc(O)cc1CC(=O)O | – | inconclusive: 9.28 µM [inhibitor, single point]
64 | CC(C)C1S/C(=N/N=C/c2ccco2)NC1=O (stereo unspecified) | – | inconclusive: 18.5 µM [inhibitor, single point]
65 | CCCCSc1nc2ccc(Nc3nc(N4CCOCC4)nc(N4CCOCC4)n3)cc2s1 | – | inconclusive: 14.7 µM [inhibitor, partial curve, poor fit]
66 | Cc1ccc(NCC(=O)N/N=C\c2ccc([N+](=O)[O-])o2)cc1 | – | active: 5.22 µM
67 | COCCNC(=O)C1CC(c2ccc(F)cc2)=NO1 (stereo unspecified) | – | inconclusive: 16.5 µM [inhibitor, partial curve, poor fit]
68 | COc1ccc(S(=O)(=O)N(C)C)cc1NC(=O)Cc1cccs1 | inactive: 66% | –
69 | COc1ccc2cc(C(=O)C3CCCN(C(=O)Cc4c(C)noc4C)C3)ccc2c1 (stereo unspecified) | – | inconclusive: 11.7 µM [inhibitor, single point]
70 | COc1ccc(-c2coc3c(C)c4oc(=O)c(CCC(=O)O)c(C)c4cc23)cc1 | – | inconclusive: 10.4 µM [inhibitor, single point]
71 | CCOC(=O)c1sc2c(c1C)c(=O)n(CCO)c(=O)n2Cc1ccccc1 | – | inconclusive: 13.1 µM [inhibitor, single point]

20 of the compounds above, in markdown:

| Row | SMILES | activity change, negative = inhibition | Potency |
| --- | --- | --- | --- |
| 49 | CCCCC(=O)Nc1cccc2c1C(=O)N(c1ccccc1)C2=O | – | active: 0.928 µM |
| 50 | COC(=O)C1=C(Nc2cc(Cl)cc(Cl)c2)CSC1 | inactive: 23.6% | – |
| 51 | Cc1ccc(S(=O)(=O)c2c(N)n(CCC(C)C)c3nc4ccccc4nc23)cc1 | – | active: 13.1 µM |
| 53 | COc1ccc(OCc2nc(C#N)c(NCCCn3ccnc3)o2)cc1 | – | inconclusive: 4.15 µM [inhibitor, partial curve] |
| 54 | COc1ccc(-n2nnnc2/C=C/Nc2cc(C(F)(F)F)ccc2OC)cc1 | – | inconclusive: 18.5 µM [inhibitor, single point] |
| 55 | CC(=O)N/N=C/c1ccc([N+](=O)[O-])o1 | – | active: 12 µM |
| 56 | COc1ccc(N(CC(=O)NCc2ccc(C)cc2)S(=O)(=O)c2c(C)[nH]c(=O)[nH]c2=O)cc1 | – | active: 4.65 µM |
| 57 | CCOC(=O)/C(C#N)=C/Nc1ccccc1NS(=O)(=O)c1cccc(C(C)=O)c1 | – | inconclusive: 18.5 µM [inhibitor, single point] |
| 58 | Cn1c(=O)[nH]c(=O)c2c1nc(N1CCN(C(c3ccccc3)c3ccccc3)CC1)n2CCO | – | inconclusive: 6.57 µM [inhibitor, partial curve, poor fit] |
| 60 | CCNC(=S)N/N=C/c1c(Cl)cccc1Cl | – | inconclusive: 18.5 µM [inhibitor, partial curve, poor fit] |
| 61 | CCC(C)Sc1ccc([C@H]2N[C@@](Cc3ccccc3)(C(=O)OC)[C@H]3C(=O)N(C)C(=O)[C@@H]23)cc1 (stereo partly specified) | – | inconclusive: 0.0033 µM [inhibitor, full curve, poor fit] |
| 62 | Cc1ccc(/C=N/Nc2nc3ccccc3s2)o1 | – | inconclusive: 3.7 µM [inhibitor, single point] |
| 63 | CC(=O)c1c(O)cc(O)cc1CC(=O)O | – | inconclusive: 9.28 µM [inhibitor, single point] |
| 65 | CCCCSc1nc2ccc(Nc3nc(N4CCOCC4)nc(N4CCOCC4)n3)cc2s1 | – | inconclusive: 14.7 µM [inhibitor, partial curve, poor fit] |
| 66 | Cc1ccc(NCC(=O)N/N=C\c2ccc([N+](=O)[O-])o2)cc1 | – | active: 5.22 µM |
| 67 | COCCNC(=O)C1CC(c2ccc(F)cc2)=NO1 (stereo unspecified) | – | inconclusive: 16.5 µM [inhibitor, partial curve, poor fit] |
| 68 | COc1ccc(S(=O)(=O)N(C)C)cc1NC(=O)Cc1cccs1 | inactive: 66% | – |
| 69 | COc1ccc2cc(C(=O)C3CCCN(C(=O)Cc4c(C)noc4C)C3)ccc2c1 (stereo unspecified) | – | inconclusive: 11.7 µM [inhibitor, single point] |
| 70 | COc1ccc(-c2coc3c(C)c4oc(=O)c(CCC(=O)O)c(C)c4cc23)cc1 | – | inconclusive: 10.4 µM [inhibitor, single point] |
| 71 | CCOC(=O)c1sc2c(c1C)c(=O)n(CCO)c(=O)n2Cc1ccccc1 | – | inconclusive: 13.1 µM [inhibitor, single point] |
